Experimental data taken from the supplement of paper PMC12067093, “Discovery and optimisation of a covalent ligand for TRIM25 and its application to targeted protein ubiquitination” (Chemical Science, 2025).
The list shows a part of the results.

Protein sequences, listed by entry. Tags and fused reporters are not part of them. Lines headed by an entry give the natural chain unless they say otherwise; changes in a name come on top.
UniProt P49792, whole entry, looked up: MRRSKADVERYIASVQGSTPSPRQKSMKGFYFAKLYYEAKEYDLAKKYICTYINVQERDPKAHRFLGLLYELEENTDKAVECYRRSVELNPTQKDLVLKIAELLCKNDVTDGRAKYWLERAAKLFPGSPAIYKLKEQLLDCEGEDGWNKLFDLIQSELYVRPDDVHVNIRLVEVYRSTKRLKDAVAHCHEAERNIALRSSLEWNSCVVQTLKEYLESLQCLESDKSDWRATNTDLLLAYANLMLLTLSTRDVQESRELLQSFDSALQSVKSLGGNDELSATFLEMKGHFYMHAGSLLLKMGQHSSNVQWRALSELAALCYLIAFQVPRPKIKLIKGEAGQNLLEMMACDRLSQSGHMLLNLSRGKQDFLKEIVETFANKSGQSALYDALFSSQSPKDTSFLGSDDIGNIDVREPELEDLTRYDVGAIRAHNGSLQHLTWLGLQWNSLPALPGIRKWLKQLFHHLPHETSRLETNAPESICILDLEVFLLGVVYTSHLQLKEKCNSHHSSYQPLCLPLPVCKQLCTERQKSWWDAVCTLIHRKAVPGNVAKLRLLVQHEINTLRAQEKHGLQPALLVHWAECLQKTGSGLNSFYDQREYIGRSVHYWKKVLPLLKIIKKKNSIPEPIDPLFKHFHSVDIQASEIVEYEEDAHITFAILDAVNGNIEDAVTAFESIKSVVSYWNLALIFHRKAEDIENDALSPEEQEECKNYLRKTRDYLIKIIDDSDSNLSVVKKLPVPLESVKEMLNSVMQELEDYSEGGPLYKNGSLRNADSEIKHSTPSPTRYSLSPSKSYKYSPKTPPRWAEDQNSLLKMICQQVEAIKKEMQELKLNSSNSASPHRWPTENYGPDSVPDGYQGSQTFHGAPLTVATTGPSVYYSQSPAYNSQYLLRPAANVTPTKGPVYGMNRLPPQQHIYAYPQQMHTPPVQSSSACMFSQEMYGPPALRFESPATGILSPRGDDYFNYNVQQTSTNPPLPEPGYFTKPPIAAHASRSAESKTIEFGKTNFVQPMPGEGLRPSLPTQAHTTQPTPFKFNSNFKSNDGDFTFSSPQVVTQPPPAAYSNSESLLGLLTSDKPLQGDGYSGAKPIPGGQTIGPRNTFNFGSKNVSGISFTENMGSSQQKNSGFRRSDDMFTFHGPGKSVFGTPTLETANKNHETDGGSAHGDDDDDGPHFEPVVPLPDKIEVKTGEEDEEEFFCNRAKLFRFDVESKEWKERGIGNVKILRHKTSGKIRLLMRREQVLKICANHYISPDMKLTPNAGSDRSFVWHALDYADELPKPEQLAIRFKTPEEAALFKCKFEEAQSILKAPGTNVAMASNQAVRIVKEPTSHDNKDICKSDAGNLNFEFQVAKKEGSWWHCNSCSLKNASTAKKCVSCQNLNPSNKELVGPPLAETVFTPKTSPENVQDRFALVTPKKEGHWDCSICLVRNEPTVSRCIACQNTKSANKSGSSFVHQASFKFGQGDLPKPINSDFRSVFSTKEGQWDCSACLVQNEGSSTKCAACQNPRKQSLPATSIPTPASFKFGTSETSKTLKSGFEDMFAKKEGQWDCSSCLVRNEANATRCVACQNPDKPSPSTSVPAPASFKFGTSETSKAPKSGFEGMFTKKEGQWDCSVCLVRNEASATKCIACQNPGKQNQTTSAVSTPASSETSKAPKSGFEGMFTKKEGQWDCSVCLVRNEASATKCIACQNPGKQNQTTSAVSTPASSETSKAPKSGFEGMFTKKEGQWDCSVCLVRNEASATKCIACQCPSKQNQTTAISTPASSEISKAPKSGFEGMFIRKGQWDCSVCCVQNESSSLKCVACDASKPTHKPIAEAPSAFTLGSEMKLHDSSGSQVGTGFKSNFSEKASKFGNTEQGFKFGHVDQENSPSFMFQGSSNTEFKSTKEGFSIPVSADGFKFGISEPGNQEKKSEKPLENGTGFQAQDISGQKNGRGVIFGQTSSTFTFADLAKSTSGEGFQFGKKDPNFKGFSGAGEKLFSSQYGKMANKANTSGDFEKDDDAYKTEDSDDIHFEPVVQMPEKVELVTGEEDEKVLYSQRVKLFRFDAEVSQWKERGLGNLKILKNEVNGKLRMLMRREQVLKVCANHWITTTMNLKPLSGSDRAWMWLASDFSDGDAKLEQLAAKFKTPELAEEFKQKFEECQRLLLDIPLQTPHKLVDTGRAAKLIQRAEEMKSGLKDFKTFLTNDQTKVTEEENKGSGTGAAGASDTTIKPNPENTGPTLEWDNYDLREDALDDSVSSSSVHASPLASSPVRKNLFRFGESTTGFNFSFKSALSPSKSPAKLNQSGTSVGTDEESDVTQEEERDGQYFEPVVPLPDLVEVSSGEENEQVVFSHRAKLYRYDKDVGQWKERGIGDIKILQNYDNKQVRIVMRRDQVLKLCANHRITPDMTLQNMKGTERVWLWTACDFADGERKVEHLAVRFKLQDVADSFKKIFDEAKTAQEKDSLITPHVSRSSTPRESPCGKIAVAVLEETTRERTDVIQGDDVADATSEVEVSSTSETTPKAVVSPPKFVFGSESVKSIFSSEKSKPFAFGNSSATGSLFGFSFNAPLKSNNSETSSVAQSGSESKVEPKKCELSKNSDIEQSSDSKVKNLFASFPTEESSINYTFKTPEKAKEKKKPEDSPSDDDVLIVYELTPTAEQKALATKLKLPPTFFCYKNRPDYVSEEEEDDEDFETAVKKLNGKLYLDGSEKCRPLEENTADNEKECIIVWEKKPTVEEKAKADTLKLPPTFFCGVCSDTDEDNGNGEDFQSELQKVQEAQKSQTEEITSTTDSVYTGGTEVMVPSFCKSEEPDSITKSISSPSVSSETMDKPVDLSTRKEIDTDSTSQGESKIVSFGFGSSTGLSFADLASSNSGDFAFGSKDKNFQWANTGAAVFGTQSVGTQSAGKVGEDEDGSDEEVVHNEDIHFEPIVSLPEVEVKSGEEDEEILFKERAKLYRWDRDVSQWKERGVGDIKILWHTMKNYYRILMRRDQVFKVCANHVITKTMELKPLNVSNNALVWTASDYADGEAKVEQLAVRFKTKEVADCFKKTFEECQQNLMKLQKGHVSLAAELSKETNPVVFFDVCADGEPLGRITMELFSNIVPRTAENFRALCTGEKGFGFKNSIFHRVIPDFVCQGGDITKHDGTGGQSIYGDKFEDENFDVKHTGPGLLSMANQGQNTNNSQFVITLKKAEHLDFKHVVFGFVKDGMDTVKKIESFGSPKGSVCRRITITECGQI
UniProt Q8N0V3: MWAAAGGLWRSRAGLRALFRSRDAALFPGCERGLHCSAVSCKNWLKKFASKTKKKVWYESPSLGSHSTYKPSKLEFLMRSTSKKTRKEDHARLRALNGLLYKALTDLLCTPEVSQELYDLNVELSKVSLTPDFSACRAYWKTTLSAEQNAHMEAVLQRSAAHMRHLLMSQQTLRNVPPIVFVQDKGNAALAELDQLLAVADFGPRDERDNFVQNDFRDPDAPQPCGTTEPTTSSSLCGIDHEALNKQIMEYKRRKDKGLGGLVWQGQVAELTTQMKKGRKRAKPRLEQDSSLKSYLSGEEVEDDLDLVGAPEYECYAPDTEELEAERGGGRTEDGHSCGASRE
UniProt P28749: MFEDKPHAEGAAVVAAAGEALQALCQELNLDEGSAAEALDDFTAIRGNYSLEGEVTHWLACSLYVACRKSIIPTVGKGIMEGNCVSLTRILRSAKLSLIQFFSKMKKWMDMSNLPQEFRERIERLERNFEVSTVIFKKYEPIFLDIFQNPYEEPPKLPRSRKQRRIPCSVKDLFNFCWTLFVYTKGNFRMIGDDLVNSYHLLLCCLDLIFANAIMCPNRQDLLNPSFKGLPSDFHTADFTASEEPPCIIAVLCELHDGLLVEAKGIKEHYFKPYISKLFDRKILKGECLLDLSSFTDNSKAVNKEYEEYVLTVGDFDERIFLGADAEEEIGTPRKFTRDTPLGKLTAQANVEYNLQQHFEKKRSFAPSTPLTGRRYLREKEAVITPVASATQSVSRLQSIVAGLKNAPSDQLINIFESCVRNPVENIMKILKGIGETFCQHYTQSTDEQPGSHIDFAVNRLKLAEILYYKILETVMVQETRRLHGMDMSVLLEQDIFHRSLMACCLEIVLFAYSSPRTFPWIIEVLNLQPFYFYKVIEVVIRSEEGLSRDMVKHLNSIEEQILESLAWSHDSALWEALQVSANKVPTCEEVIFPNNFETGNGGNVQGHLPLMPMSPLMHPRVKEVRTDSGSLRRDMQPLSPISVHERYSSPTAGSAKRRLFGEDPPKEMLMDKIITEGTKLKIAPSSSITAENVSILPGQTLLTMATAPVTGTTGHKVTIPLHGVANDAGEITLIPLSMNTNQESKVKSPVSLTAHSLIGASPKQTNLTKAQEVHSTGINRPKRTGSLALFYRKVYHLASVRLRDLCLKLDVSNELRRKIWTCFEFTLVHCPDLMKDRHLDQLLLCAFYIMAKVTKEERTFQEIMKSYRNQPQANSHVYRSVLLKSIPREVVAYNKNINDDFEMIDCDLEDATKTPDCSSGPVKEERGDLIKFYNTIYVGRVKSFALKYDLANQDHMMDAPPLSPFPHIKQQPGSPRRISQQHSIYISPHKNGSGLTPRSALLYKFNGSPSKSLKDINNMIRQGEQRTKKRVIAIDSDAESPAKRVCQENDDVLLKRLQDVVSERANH
UniProt Q13905: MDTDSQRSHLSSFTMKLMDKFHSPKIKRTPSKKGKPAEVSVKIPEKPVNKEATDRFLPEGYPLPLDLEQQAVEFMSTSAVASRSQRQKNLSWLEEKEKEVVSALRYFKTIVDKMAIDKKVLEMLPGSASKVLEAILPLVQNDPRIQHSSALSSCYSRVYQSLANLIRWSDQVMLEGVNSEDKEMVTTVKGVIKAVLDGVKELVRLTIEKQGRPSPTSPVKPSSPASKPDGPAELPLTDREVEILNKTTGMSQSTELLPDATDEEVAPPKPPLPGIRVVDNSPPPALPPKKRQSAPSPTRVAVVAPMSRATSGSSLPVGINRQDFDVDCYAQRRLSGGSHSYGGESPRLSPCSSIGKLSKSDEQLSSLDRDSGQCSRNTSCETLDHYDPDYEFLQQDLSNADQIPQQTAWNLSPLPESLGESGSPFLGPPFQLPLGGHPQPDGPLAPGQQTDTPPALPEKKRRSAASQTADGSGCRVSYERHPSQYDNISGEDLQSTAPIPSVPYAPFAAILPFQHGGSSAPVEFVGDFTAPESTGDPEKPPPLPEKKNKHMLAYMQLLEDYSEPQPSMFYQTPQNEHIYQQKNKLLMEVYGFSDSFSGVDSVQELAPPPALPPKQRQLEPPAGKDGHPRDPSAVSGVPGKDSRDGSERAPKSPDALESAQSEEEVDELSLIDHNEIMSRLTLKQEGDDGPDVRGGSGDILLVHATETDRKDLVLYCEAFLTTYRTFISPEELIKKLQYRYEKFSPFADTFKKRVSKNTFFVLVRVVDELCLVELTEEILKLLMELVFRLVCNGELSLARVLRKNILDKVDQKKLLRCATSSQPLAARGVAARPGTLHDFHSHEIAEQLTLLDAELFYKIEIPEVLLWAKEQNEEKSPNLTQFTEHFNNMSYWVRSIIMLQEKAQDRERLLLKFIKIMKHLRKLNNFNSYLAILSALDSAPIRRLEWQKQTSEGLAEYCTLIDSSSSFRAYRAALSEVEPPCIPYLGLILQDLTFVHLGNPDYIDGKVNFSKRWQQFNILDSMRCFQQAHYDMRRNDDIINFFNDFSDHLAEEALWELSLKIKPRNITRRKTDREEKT
UniProt P49756, whole entry, looked up: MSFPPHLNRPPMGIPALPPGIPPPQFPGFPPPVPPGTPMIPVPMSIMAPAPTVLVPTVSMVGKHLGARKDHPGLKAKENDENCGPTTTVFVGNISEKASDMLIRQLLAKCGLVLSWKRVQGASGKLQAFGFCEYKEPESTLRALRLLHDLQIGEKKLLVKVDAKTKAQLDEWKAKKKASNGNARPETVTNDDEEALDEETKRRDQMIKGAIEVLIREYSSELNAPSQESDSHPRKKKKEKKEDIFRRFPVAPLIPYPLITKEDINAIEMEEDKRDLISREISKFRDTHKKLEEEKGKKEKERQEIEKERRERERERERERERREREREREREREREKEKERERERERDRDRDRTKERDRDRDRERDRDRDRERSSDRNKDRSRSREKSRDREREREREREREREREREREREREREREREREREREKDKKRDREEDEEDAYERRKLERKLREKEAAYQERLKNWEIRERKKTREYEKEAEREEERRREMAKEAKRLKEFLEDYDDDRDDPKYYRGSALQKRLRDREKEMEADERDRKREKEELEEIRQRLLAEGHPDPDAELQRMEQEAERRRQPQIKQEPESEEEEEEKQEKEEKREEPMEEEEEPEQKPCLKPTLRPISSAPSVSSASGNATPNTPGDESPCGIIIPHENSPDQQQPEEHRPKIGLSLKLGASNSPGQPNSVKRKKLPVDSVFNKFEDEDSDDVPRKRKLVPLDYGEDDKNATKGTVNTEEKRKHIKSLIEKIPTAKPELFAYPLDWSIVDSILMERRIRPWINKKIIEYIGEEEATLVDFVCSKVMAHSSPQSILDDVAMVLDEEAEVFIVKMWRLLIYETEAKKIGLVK

These targets were tested with Cc1cc(ccc1-c1ccccc1)C(=O)N1CCCN(CC1)C(=O)CCl [compound 10] (assay: probe-labelled cysteine peptide fold change vs DMSO (competition) (log2 fold change); higher = less target engagement (more negative = stronger competition)). Settings: 10 µM; THP-1; incubation time: 4 h.
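Also: competitive profiling in live THP-1 cells: cysteine peptides tagged with an iodoacetamide desthiobiotin (IA-DTB) probe, intensity after compound treatment relative to DMSO-treated cells.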

| Target | probe-labelled cysteine peptide fold change |
| --- | --- |
| RBM34_P42696_310_HFLDCGSIMAVR (UniProt P42696) | 0.104 |
| RDH14_Q9HBH5_97_QAAECGPEPGVSGVGELIVR (UniProt Q9HBH5) | -0.0913 |
| RBM14_Q96PK6_90_IFVGNVSAACTSQELR (UniProt Q96PK6) | 0.204 |
| RCSD1_Q6JBY9_181_RSQSDCGELGDFR (UniProt Q6JBY9) | -0.852 |
| RANBP2_P49792_1424_EGHWDCSICLVR (UniProt P49792) | 0.133 |
| RB1CC1_Q8TDY2_839_CTAVEIR (UniProt Q8TDY2) | -0.358 |
| RDH13_Q8NBN7_75_CEAAAK (UniProt Q8NBN7) | -0.384 |
| RBM6_P78332_957+960_LACLLCR (UniProt P78332) | 0.0979 |
| RBCK1_Q9BYM8_493_WGPGGPGDTSGGCR (UniProt Q9BYM8) | 0.0272 |
| RBPJ_Q06330_180_NADLCIASGTK (UniProt Q06330) | -0.0723 |
| RBX1_P62877_94_QVCPLDNR (UniProt P62877) | -0.0174 |
| RBM6_P78332_1057_GGCVQQATGWR (UniProt P78332) | -0.14 |
| RBFA_Q8N0V3_338_TEDGHSCGASR (UniProt Q8N0V3) | -0.17 |
| RBL1_P28749_439_GIGETFCQHYTQSTDEQPGSHIDFAVNR (UniProt P28749) | -0.0209 |
| RBM28_Q9NW13_490_LCLHNLPK (UniProt Q9NW13) | 0.0958 |
| RBM17_Q96I25_339_CVIFEIPGAPDDEAVR (UniProt Q96I25) | 0.133 |
| RASAL2_Q9UJF2_333_NKEELACALVHILQSTGR (UniProt Q9UJF2) | 0.106 |
| RASSF4_Q9H2L5_145_SDASCMSQR (UniProt Q9H2L5) | 0.115 |
| RBM22_Q9NW64_269_QQCAFIQFATR (UniProt Q9NW64) | 0.195 |
| RBBP7_Q16576_166_HPAKPDPSGECNPDLR (UniProt Q16576) | -0.21 |

| Target | probe-labelled cysteine peptide fold change |
| --- | --- |
| RBKS_Q9H477_73_LGAMTSMVCK (UniProt Q9H477) | -0.0496 |
| RAI1_Q7Z5J4_828_EEAGGLLQCPEVAK (UniProt Q7Z5J4) | -0.199 |
| RAPGEF6_Q8TEU7_105_GCDCLVLEPSEMIVVENAK (UniProt Q8TEU7) | -0.012 |
| RBM22_Q9NW64_27_QNWEDADFPILCQTCLGENPYIR (UniProt Q9NW64) | 0.169 |
| RAPGEF1_Q13905_1024_CFQQAHYDMR (UniProt Q13905) | -0.104 |
| RBBP7_Q16576_202_EGYGLSWNSNLSGHLLSASDDHTVCLWDINAGPK (UniProt Q16576) | 0.0794 |
| RBM15B_Q8NDT2_323_GRPYGYPAVCEEDLMPEDDQR (UniProt Q8NDT2) | -0.123 |
| RAN_P62826_112_VCENIPIVLCGNK (UniProt P62826) | 0.0712 |
| RANGAP1_P46060_82_RCHWSDMFTGR (UniProt P46060) | 0.0509 |
| RBBP7_Q16576_97_VHIPNDDAQFDASHCDSDKGEFGGFGSVTGK (UniProt Q16576) | -0.456 |
| RBPJ_Q06330_397_CGESMLCVVPDISAFR (UniProt Q06330) | 0.406 |
| RALGPS2_Q86X27_341_CHSLGYNFIHK (UniProt Q86X27) | -0.208 |
| RBBP6_Q7Z6E9_161_KPLGPPPPSYTCFR (UniProt Q7Z6E9) | 0.189 |
| RARS2_Q5T160_372_CQHVPFGVVQGMK (UniProt Q5T160) | -0.106 |
| RAP1A_P62834_141_QWCNCAFLESSAK (UniProt P62834) | -0.322 |
| RASSF2_P50749_12_MDYSHQTSLVPCGQDK (UniProt P50749) | -0.0227 |
| RBBP6_Q7Z6E9_280+283_DIMTDAVVIPCCGNSYCDECIR (UniProt Q7Z6E9) | -0.169 |
| RAI1_Q7Z5J4_1729_VRPEGTCEEASLPLER (UniProt Q7Z5J4) | -0.257 |
| RBM25_P49756_132_LQAFGFCEYKEPESTLR (UniProt P49756) | -0.148 |

Same assay, conditions: 50 µM; THP-1; incubation time: 4 h

| Target | probe-labelled cysteine peptide fold change |
| --- | --- |
| RBM34_P42696_310_HFLDCGSIMAVR (UniProt P42696) | 0.0976 |
| RDH14_Q9HBH5_97_QAAECGPEPGVSGVGELIVR (UniProt Q9HBH5) | 0.0241 |
| RBM14_Q96PK6_90_IFVGNVSAACTSQELR (UniProt Q96PK6) | 0.0681 |
| RCSD1_Q6JBY9_181_RSQSDCGELGDFR (UniProt Q6JBY9) | -1.19 |
| RANBP2_P49792_1424_EGHWDCSICLVR (UniProt P49792) | 0.0538 |
| RB1CC1_Q8TDY2_839_CTAVEIR (UniProt Q8TDY2) | -0.219 |
| RDH13_Q8NBN7_75_CEAAAK (UniProt Q8NBN7) | -0.169 |
| RBM6_P78332_957+960_LACLLCR (UniProt P78332) | -0.287 |
| RBCK1_Q9BYM8_493_WGPGGPGDTSGGCR (UniProt Q9BYM8) | -0.208 |
| RBPJ_Q06330_180_NADLCIASGTK (UniProt Q06330) | -0.0419 |
| RBX1_P62877_94_QVCPLDNR (UniProt P62877) | 0.204 |
| RBM6_P78332_1057_GGCVQQATGWR (UniProt P78332) | -0.495 |
| RBFA_Q8N0V3_338_TEDGHSCGASR (UniProt Q8N0V3) | -0.0284 |
| RBL1_P28749_439_GIGETFCQHYTQSTDEQPGSHIDFAVNR (UniProt P28749) | 0.111 |
| RBM28_Q9NW13_490_LCLHNLPK (UniProt Q9NW13) | -0.0599 |
| RBM17_Q96I25_339_CVIFEIPGAPDDEAVR (UniProt Q96I25) | 0.0548 |
| RASAL2_Q9UJF2_333_NKEELACALVHILQSTGR (UniProt Q9UJF2) | -0.178 |
| RASSF4_Q9H2L5_145_SDASCMSQR (UniProt Q9H2L5) | -0.0535 |
| RBM22_Q9NW64_269_QQCAFIQFATR (UniProt Q9NW64) | 0.342 |
| RBBP7_Q16576_166_HPAKPDPSGECNPDLR (UniProt Q16576) | 0.0678 |

| Target | probe-labelled cysteine peptide fold change |
| --- | --- |
| RBKS_Q9H477_73_LGAMTSMVCK (UniProt Q9H477) | -0.178 |
| RAI1_Q7Z5J4_828_EEAGGLLQCPEVAK (UniProt Q7Z5J4) | -0.303 |
| RAPGEF6_Q8TEU7_105_GCDCLVLEPSEMIVVENAK (UniProt Q8TEU7) | -0.465 |
| RBM22_Q9NW64_27_QNWEDADFPILCQTCLGENPYIR (UniProt Q9NW64) | -0.23 |
| RAPGEF1_Q13905_1024_CFQQAHYDMR (UniProt Q13905) | -0.218 |
| RBBP7_Q16576_202_EGYGLSWNSNLSGHLLSASDDHTVCLWDINAGPK (UniProt Q16576) | 0.0275 |
| RBM15B_Q8NDT2_323_GRPYGYPAVCEEDLMPEDDQR (UniProt Q8NDT2) | -0.481 |
| RAN_P62826_112_VCENIPIVLCGNK (UniProt P62826) | 0.0886 |
| RANGAP1_P46060_82_RCHWSDMFTGR (UniProt P46060) | 0.0272 |
| RBBP7_Q16576_97_VHIPNDDAQFDASHCDSDKGEFGGFGSVTGK (UniProt Q16576) | -0.54 |
| RBPJ_Q06330_397_CGESMLCVVPDISAFR (UniProt Q06330) | 0.28 |
| RALGPS2_Q86X27_341_CHSLGYNFIHK (UniProt Q86X27) | -0.32 |
| RBBP6_Q7Z6E9_161_KPLGPPPPSYTCFR (UniProt Q7Z6E9) | 0.216 |
| RARS2_Q5T160_372_CQHVPFGVVQGMK (UniProt Q5T160) | -0.169 |
| RAP1A_P62834_141_QWCNCAFLESSAK (UniProt P62834) | -0.308 |
| RASSF2_P50749_12_MDYSHQTSLVPCGQDK (UniProt P50749) | -0.106 |
| RBBP6_Q7Z6E9_280+283_DIMTDAVVIPCCGNSYCDECIR (UniProt Q7Z6E9) | -0.403 |
| RAI1_Q7Z5J4_1729_VRPEGTCEEASLPLER (UniProt Q7Z5J4) | -0.157 |
| RBM25_P49756_132_LQAFGFCEYKEPESTLR (UniProt P49756) | -0.0661 |
